Out of some 300,000 compounds screened, about 5,400 (1.8%) were called active. Inconclusive results, whose numbers are uncertain, are shown with a selection of clear calls. Calls follow the shape of the full dose curve; tested in HEK293 cells. A potency beside an inconclusive call is a rough fit, not a confirmed value.
test: qHTS for inhibitors of binding or entry into cells for Marburg Virus; details: Marburg virus pseudotyped entry inhibition, cell reporter; activity change, negative = inhibition: at 37.8 µM (top of the series) unless noted
% is scaled to controls: 0 for no effect and ±100 for the full control effect; potency is read from the fitted curve at half-maximal effect.

Structure (SMILES)	activity change, negative = inhibition	Potency
CCCCCN(C(=O)CCC(=O)OCC(=O)N(C)Cc1ccc(C)cc1)c1c(N)n(CCCC)c(=O)[nH]c1=O	inactive: -0.882%	–
CCn1c(C)nc2cc(C(=O)N/N=C/c3cccc(OC)c3O)ccc21	–	inconclusive: 8.91 µM [inhibitor, partial curve]
COc1ccc(C2c3[nH]c4ccccc4c3CCN2CCCn2cccn2)c(C)c1C (stereo not given)	–	inconclusive: 20 µM [inhibitor, partial curve, poor fit]
O=C(NC1CCN(C(=O)NCc2ccccc2)CC1)c1cccc(F)c1	inactive: 2.43% [at 46.1 µM]	–
CC(C)Nc1nc(NC(C)C)nc(N(C)N)n1	inactive: -26.5%	–
COCCCNCCCCOc1ccc(Br)cc1Cl	–	inconclusive: 29.1 µM [inhibitor, single point]
Cc1cccc(Oc2nccc(C(F)(F)F)c2C(=O)Nc2ccc(F)cc2F)c1	–	inconclusive: 8.91 µM [inhibitor, partial curve, poor fit]
Cc1cc(C)c2cc(C(=O)Nc3ccc(C)c(F)c3)[nH]c2c1	inactive: 30% [at 46.1 µM]	–
Cc1cc(C(=O)N2CCCC(CO)(Cc3ccc(F)cc3)C2)c(C)o1 (stereo not given)	–	inconclusive: 22.4 µM [inhibitor, partial curve, poor fit]
CC1=NN(c2nc(-c3ccc(C)cc3)cs2)C(=O)C1N=Nc1ccc2ccccc2c1 (stereo not given)	inactive: 23.3%	–
Cc1ccc(/C(N)=N/OC(=O)c2ccc(F)cc2)cc1	–	inconclusive: 29.1 µM [inhibitor, single point]
COc1cc(CN2CC(=O)N(c3ccc(C)c(C)c3)C2=S)cc(OC)c1OC	–	inconclusive: 2.82 µM [inhibitor, full curve]
CCc1ccc(/C=N/Nc2ncnc3nc[nH]c23)cc1	–	inconclusive: 3.55 µM [activator, partial curve, poor fit]
Cc1ccc(CCNC(c2ccc(F)cc2)c2nnc(-c3ccccc3Cl)o2)cc1 (stereo not given)	–	inconclusive: 14.1 µM [inhibitor, single point]
O=C(NC1CCCCC1)C(c1ccco1)N(C(=O)c1csnn1)c1ccccc1 (stereo not given)	inactive: 4.28% [at 46.1 µM]	–
Cc1ccc2nc3c(c(N)c2c1)CCN3c1ccccc1	–	inconclusive: 0.73 µM [inhibitor, full curve, poor fit]
O=C(O)[C@@H]1CC(O)CN1C(=O)CCc1c[nH]c2ccccc12 (stereo not given in full)	inactive: 10.1% [at 46.1 µM]	–
CCOc1ccc2oc(C(=O)N(CC)CC(=O)Nc3c(F)cccc3F)c(C)c2c1	inactive: -16.4%	–
C=CCn1c(NCCc2ccccc2)nc2c1c(=O)n(C)c(=O)n2C	–	inconclusive: 10 µM [inhibitor, partial curve, poor fit]
CCCN1C(=O)/C(=C\c2ccncc2)SC1=Nc1ccccc1	–	inconclusive: 16.4 µM [inhibitor, single point]

A second format for 2 compounds above:

| Structure (SMILES) | activity change, negative = inhibition | Potency |
| --- | --- | --- |
| CCc1ccc(/C=N/Nc2ncnc3nc[nH]c23)cc1 | – | inconclusive: 3.55 µM [activator, partial curve, poor fit] |
| O=C(O)[C@@H]1CC(O)CN1C(=O)CCc1c[nH]c2ccccc12 (stereo not given in full) | inactive: 10.1% [at 46.1 µM] | – |
